These are yes or no findings as the source states them, for the method shown. Some results given as binding are weak or reduced against the parent protein; the word gives no strength.
T1: plant and prokaryotes conserved (PPC) domain of AHL3 (Arabidopsis thaliana) (UniProt Q9SB31)
T1 sequence: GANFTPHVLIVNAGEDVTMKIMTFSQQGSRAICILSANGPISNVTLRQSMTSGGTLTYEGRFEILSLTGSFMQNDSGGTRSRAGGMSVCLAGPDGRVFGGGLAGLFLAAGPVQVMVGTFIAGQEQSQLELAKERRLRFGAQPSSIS

T2: plant and prokaryotes conserved (PPC) domain of AHL4 (Arabidopsis thaliana) (UniProt Q9FHM5)
T2 sequence: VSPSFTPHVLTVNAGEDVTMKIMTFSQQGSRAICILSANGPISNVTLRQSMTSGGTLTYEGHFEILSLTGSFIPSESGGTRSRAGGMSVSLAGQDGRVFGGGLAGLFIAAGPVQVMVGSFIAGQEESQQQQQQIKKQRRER

T3: AT-HOOK MOTIF NUCLEAR LOCALIZED PROTEIN 3 (AHL3), full-length (Arabidopsis thaliana) (UniProt Q9SB31)
T3 sequence: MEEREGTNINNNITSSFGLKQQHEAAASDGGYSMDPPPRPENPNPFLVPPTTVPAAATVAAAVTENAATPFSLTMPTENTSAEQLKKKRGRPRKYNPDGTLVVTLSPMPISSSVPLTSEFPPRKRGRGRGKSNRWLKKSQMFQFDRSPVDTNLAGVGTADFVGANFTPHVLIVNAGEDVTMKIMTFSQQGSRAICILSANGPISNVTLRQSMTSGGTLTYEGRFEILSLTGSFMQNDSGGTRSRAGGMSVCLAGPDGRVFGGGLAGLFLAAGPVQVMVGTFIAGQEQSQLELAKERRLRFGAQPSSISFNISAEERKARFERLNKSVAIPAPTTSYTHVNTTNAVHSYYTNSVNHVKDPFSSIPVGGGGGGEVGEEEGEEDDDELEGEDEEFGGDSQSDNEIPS


Key:
Experiment in all cases: two-hybrid; ProQuest two-hybrid system (Invitrogen) in yeast; bait in pDEST32 (GAL4 DNA-binding domain), prey in pDEST22 (GAL4 activation domain); 3-AT assay: growth on SD3- (Leu-/Trp-/His-) media with 0, 10, 20 and 40 mM 3-AT, 30°C, 2 days; criterion of interaction: a colony on SD3- media with 20 mM 3-AT
[1] = target: T1, plant and prokaryotes conserved (PPC) domain of AHL3 (Arabidopsis thaliana)
[2] = target: T2, plant and prokaryotes conserved (PPC) domain of AHL4 (Arabidopsis thaliana)
[3] = target: T3, AT-HOOK MOTIF NUCLEAR LOCALIZED PROTEIN 3 (AHL3), full-length (Arabidopsis thaliana)

| Binder | binding [1] | binding [2] | binding [3] |
| --- | --- | --- | --- |
| AT-HOOK MOTIF NUCLEAR LOCALIZED PROTEIN 3 (AHL3), full-length (protein, UniProt Q9SB31 1-404) MEEREGTNINNNITSSFGLKQQHEAAASDGGYSMDPPPRPENPNPFLVPPTTVPAAATVAAAVTENAATPFSLTMPTENTSAEQLKKKRGRPRKYNPDGTLVVTLSPMPISSSVPLTSEFPPRKRGRGRGKSNRWLKKSQMFQFDRSPVDTNLAGVGTADFVGANFTPHVLIVNAGEDVTMKIMTFSQQGSRAICILSANGPISNVTLRQSMTSGGTLTYEGRFEILSLTGSFMQNDSGGTRSRAGGMSVCLAGPDGRVFGGGLAGLFLAAGPVQVMVGTFIAGQEQSQLELAKERRLRFGAQPSSISFNISAEERKARFERLNKSVAIPAPTTSYTHVNTTNAVHSYYTNSVNHVKDPFSSIPVGGGGGGEVGEEEGEEDDDELEGEDEEFGGDSQSDNEIPS | binds | binds |  |
| AT-HOOK MOTIF NUCLEAR LOCALIZED PROTEIN 4 (AHL4), full-length (protein, UniProt Q9FHM5 1-419) MEEREGTNINNIPTSFGLKQHETPLPPPGYPPRSENPNLFPVGQSSTSSAAAAVKPSENVAPPFSLTMPVENSSSELKKKRGRPRKYNPDGSLAVTLSPMPISSSVPLTSEFGSRKRGRGRGRGRGRGRGRGQGQGSREPNNNNNDNNWLKNPQMFEFNNNTPTSGGGGPAEIVSPSFTPHVLTVNAGEDVTMKIMTFSQQGSRAICILSANGPISNVTLRQSMTSGGTLTYEGHFEILSLTGSFIPSESGGTRSRAGGMSVSLAGQDGRVFGGGLAGLFIAAGPVQVMVGSFIAGQEESQQQQQQIKKQRRERLGIPTTTQASNISFGGSAEDPKARYGLNKPVVIQPPPVSAPPVSFSHEPSTNTVHGYYANNTANHIKDLFSSLPGEDREEDEDDLEGEDDEEFGGHSESDTEVPS | binds | binds |  |
| AT-HOOK MOTIF NUCLEAR LOCALIZED PROTEIN 1 (AHL1) (protein, UniProt Q8VYJ2 1-356) MVLNMESTGEAVRSTTGNDGGITVVRSDAPSDFHVAQRSESSNQSPTSVTPPPPQPSSHHTAPPPLQISTVTTTTTTAAMEGISGGLMKKKRGRPRKYGPDGTVVALSPKPISSAPAPSHLPPPSSHVIDFSASEKRSKVKPTNSFNRTKYHHQVENLGEWAPCSVGGNFTPHIITVNTGEDVTMKIISFSQQGPRSICVLSANGVISSVTLRQPDSSGGTLTYEGRFEILSLSGSFMPNDSGGTRSRTGGMSVSLASPDGRVVGGGLAGLLVAASPVQVVVGSFLAGTDHQDQKPKKNKHDFMLSSPTAAIPISSAADHRTIHSVSSLPVNNNTWQTSLASDPRNKHTDINVNVT |  | binds | binds |
| AT-HOOK MOTIF NUCLEAR LOCALIZED PROTEIN 6 (AHL6) (protein, UniProt Q9LVB0 1-404) MEEKGEISPSGVVTVKGDEALVPRTEFQQNPSFLQFVSPTTVVTPLPPPPAPSSAPVPTTVTPGSATASTGSDPTKKKRGRPRKYAPDGSLNPRFLRPTLSPTPISSSIPLSGDYQWKRGKAQQQHQPLEFVKKSHKFEYGSPAPTPPLPGLSCYVGANFTTHQFTVNGGEDVTMKVMPYSQQGSRAICILSATGSISNVTLGQPTNAGGTLTYEGRFEILSLSGSFMPTENGGTKGRAGGMSISLAGPNGNIFGGGLAGMLIAAGPVQVVMGSFIVMHQAEQNQKKKPRVMEAFAPPQPQAPPQLQQQQPPTFTITTVNSTSPSVNTVEEQKPQAYGGGIVRPMAQMPSSFQNDNSTMNNFTPAYHGYGNMNTGTTHKEEHEDEDGGDDDDDSGDTRSQSHSG |  | binds |  |
| AT-HOOK MOTIF NUCLEAR LOCALIZED PROTEIN 7 (AHL7) (protein, UniProt Q4V3E0 1-318) METSDRISPGGGIGAEVPSAYHMAPRPSDSPANQFMGLSLPPMEAPMPSSGEASGKKRRGRPRKYEANGAPLPSSSVPLVKKRVRGKLNGFDMKKMHKTIGFHSSGERFGVGGGVGGGVGSNFTPHVITVNTGEDITMRIISFSQQGPRAICILSANGVISNVTLRQPDSCGGTLTYEGRFEILSLSGSFMETENQGSKGRSGGMSVSLAGPDGRVVGGGVAGLLIAATPIQVVVGSFITSDQQDHQKPRKQRVEHAPAAVMSVPPPPSPPPPAASVFSPTNPDREQPPSSFGISSWTNGQDMPRNSATDINISLPVD |  | binds |  |
| AT-HOOK MOTIF NUCLEAR LOCALIZED PROTEIN 2 (AHL2) (protein, UniProt O49658 1-334) METTGEVVKTTTGSDGGVTVVRSNAPSDFHMAPRSETSNTPPNSVAPPPPPPPQNSFTPSAAMDGFSSGPIKKRRGRPRKYGHDGAAVTLSPNPISSAAPTTSHVIDFSTTSEKRGKMKPATPTPSSFIRPKYQVENLGEWSPSSAAANFTPHIITVNAGEDVTKRIISFSQQGSLAICVLCANGVVSSVTLRQPDSSGGTLTYEGRFEILSLSGTFMPSDSDGTRSRTGGMSVSLASPDGRVVGGGVAGLLVAATPIQVVVGTFLGGTNQQEQTPKPHNHNFMSSPLMPTSSNVADHRTIRPMTSSLPISTWTPSFPSDSRHKHSHDFNITLT |  | no binding |  |
| AT-HOOK MOTIF NUCLEAR LOCALIZED PROTEIN 15 (AHL15) (protein, UniProt Q9M2S3 1-310) MANPWWVGNVAIGGVESPVTSSAPSLHHRNSNNNNPPTMTRSDPRLDHDFTTNNSGSPNTQTQSQEEQNSRDEQPAVEPGSGSGSTGRRPRGRPPGSKNKPKSPVVVTKESPNSLQSHVLEIATGADVAESLNAFARRRGRGVSVLSGSGLVTNVTLRQPAASGGVVSLRGQFEILSMCGAFLPTSGSPAAAAGLTIYLAGAQGQVVGGGVAGPLIASGPVIVIAATFCNATYERLPIEEEQQQEQPLQLEDGKKQKEENDDNESGNNGNEGSMQPPMYNMPPNFIPNGHQMAQHDVYWGGPPPRAPPSY |  | no binding |  |
| AT-HOOK MOTIF NUCLEAR LOCALIZED PROTEIN 16 (AHL16) (protein, UniProt Q9SJG4 1-257) MAGGTALTPTSVGSKSVPMRNHEATERGNTNNNLRALPKAVQPVSSIEGEMAKRPRGRPAGSKNKPKPPIIVTHDSPNSLRANAVEISSGCDICETLSDFARRKQRGLCILSANGCVTNVTLRQPASSGAIVTLHGRYEILSLLGSILPPPAPLGITGLTIYLAGPQGQVVGGGVVGGLIASGPVVLMAASFMNAVFDRLPMDDDEAASMQNQQYYQNGRSRPLDDIHGLPQNLLTNGNSASDIYSWGPAQRVMSKP |  | no binding |  |
| AT-HOOK MOTIF NUCLEAR LOCALIZED PROTEIN 19 (AHL19) (protein, UniProt Q9SR17 1-315) MANPWWTGQVNLSGLETTPPGSSQLKKPDLHISMNMAMDSGHNNHHHHQEVDNNNNDDDRDNLSGDDHEPREGAVEAPTRRPRGRPAGSKNKPKPPIFVTRDSPNALKSHVMEIASGTDVIETLATFARRRQRGICILSGNGTVANVTLRQPSTAAVAAAPGGAAVLALQGRFEILSLTGSFLPGPAPPGSTGLTIYLAGGQGQVVGGSVVGPLMAAGPVMLIAATFSNATYERLPLEEEEAAERGGGGGSGGVVPGQLGGGGSPLSSGAGGGDGNQGLPVYNMPGNLVSNGGSGGGGQMSGQEAYGWAQARSGF |  | no binding |  |
| AT-HOOK MOTIF NUCLEAR LOCALIZED PROTEIN 20 (AHL20) (protein, UniProt Q8GWQ2 1-281) MANPWWTNQSGLAGMVDHSVSSGHHQNHHHQSLLTKGDLGIAMNQSQDNDQDEEDDPREGAVEVVNRRPRGRPPGSKNKPKAPIFVTRDSPNALRSHVLEISDGSDVADTIAHFSRRRQRGVCVLSGTGSVANVTLRQAAAPGGVVSLQGRFEILSLTGAFLPGPSPPGSTGLTVYLAGVQGQVVGGSVVGPLLAIGSVMVIAATFSNATYERLPMEEEEDGGGSRQIHGGGDSPPRIGSNLPDLSGMAGPGYNMPPHLIPNGAGQLGHEPYTWVHARPPY |  | no binding |  |
| AT-HOOK MOTIF NUCLEAR LOCALIZED PROTEIN 21 (AHL21) (protein, UniProt O82166 1-285) MAGLDLGTTSRYVHNVDGGGGGQFTTDNHHEDDGGAGGNHHHHHHNHNHHQGLDLIASNDNSGLGGGGGGGSGDLVMRRPRGRPAGSKNKPKPPVIVTRESANTLRAHILEVGSGCDVFECISTYARRRQRGICVLSGTGTVTNVSIRQPTAAGAVVTLRGTFEILSLSGSFLPPPAPPGATSLTIFLAGAQGQVVGGNVVGELMAAGPVMVMAASFTNVAYERLPLDEHEEHLQSGGGGGGGNMYSEATGGGGGLPFFNLPMSMPQIGVESWQGNHAGAGRAPF |  | no binding |  |

From publication PMC8056045
